Data: ChEMBL document CHEMBL1155281, “Synthesis, spectroscopic characterization and antibacterial activity of new cobalt(II) complexes of unsymmetrical tetradentate (OSN2) Schiff base ligands” (2009)

What was measured:
Pseudomonas aeruginosa = experiment: Antibacterial activity against Pseudomonas aeruginosa RITCC 1547 at 10 ug after overnight incubation by agar well diffusion method; format: functional, organism-based
Staphylococcus aureus = experiment: Antibacterial activity against Staphylococcus aureus RITCC 1885 at 10 ug after overnight incubation by agar well diffusion method; format: functional, organism-based

How did the inhibition zone (IZ) (Pseudomonas aeruginosa) turn out when GENTAMICIN was run?
The inhibition zone (IZ) was 16 mm.

And the inhibition zone (IZ) (Staphylococcus aureus)?
Its inhibition zone (IZ) is 20 mm.
